Measurements reported in the supplement of paper PMC4840960.
Where a name gives a salt, the structure may show the parent alone. ± gives the standard deviation of the averaged measurements. The list shows a part of the results. Plates or batches differ in their baseline, so values are only roughly comparable.

System: E18 rat cortical neuron-glia co-culture
Experiment: total nuclei (DAPI) / Olig2+ nuclei (ratio); higher = more depletion of OPC/OL lineage cells
Settings: 1 µM; treatment time: 8 days (DIV5-DIV13)

| SMILES | total nuclei |
| --- | --- |
| c1ccc2[nH]c(-c3cscn3)nc2c1 [Thiabendazole] | 2.95 |
| CN1CCN(c2c(F)cc3c(=O)c(C(=O)O)cn4c3c2SCC4)CC1 [Rufloxacin] | 8.84 |
| NC(N)=Nc1nc(CSCC/C(N)=N/S(N)(=O)=O)cs1 [Famotidine] | 4.9 |
| CC(=O)SCC(Cc1ccccc1)C(=O)NCC(=O)OCc1ccccc1 (stereo unspecified) [Racecadotril] | 5.94 |
| O=C1c2cccc3c2[C@H](CCC3)CN1[C@@H]1CN2CCC1CC2 [Palonosetron] | 2.7 |
| CC1CCN(CCCC(=O)c2ccc(F)cc2)CC1 [Melperone hydrochloride] | 3.59 |
| CO/N=C(\C(=O)N[C@@H]1C(=O)N2C(C(=O)O)=C(COC(N)=O)CS[C@H]12)c1ccco1 [Cefuroxime] | 3.04 |
| CN(CCOc1ccc(NS(C)(=O)=O)cc1)CCc1ccc(NS(C)(=O)=O)cc1 [Dofetilide] | 2.66 |
| CC1(C)O[C@@H]2[C@@H](CO[C@@]3(COS(N)(=O)=O)OC(C)(C)O[C@@H]23)O1 [Topiramate] | 2.97 |
| NC12CC3CC(CC(C3)C1)C2 [Amantadine] | 3.53 |
| Nc1nnc(-c2cccc(Cl)c2Cl)c(N)n1 [Lamotrigine] | 3.75 |
| CC1Cc2ccccc2N1NC(=O)c1ccc(Cl)c(S(N)(=O)=O)c1 (stereo unspecified) [Indapamide] | 2.62 |
| Oc1ncnc2[nH]ncc12 [Allopurinol] | 4.22 |
| CN(C)CCc1c[nH]c2ccc(C[C@H]3COC(=O)N3)cc12 [Zolmitriptan] | 2.72 |
| CCc1nc(N)nc(N)c1-c1ccc(Cl)cc1 [Pyrimethamine] | 15.9 |
| CC(=O)OCC(=O)[C@@]1(O)CC[C@H]2[C@@H]3C[C@H](C)C4=CC(=O)C=C[C@]4(C)[C@H]3[C@@H](O)C[C@@]21C [Methylprednisolone acetate] | 4.44 |
| CCCCC(=O)O[C@H]1CC[C@H]2[C@@H]3CCc4cc(O)ccc4[C@H]3CC[C@]12C [Estradiol valerate] | 2.7 |
| CN(C)CCC(c1ccc(Cl)cc1)c1ccccn1 (stereo unspecified) [Chlorpheniramine] | 2.85 ± 0.19 |

Sorted by count of non-hydrogen atoms (smallest number first): part of the list above

| SMILES | total nuclei |
| --- | --- |
| NC12CC3CC(CC(C3)C1)C2 [Amantadine] | 3.53 |
| CC(=O)SCC(Cc1ccccc1)C(=O)NCC(=O)OCc1ccccc1 (stereo unspecified) [Racecadotril] | 5.94 |
| CN(CCOc1ccc(NS(C)(=O)=O)cc1)CCc1ccc(NS(C)(=O)=O)cc1 [Dofetilide] | 2.66 |

Further structures:

| SMILES | total nuclei |
| --- | --- |
| NC[C@H]1CC[C@H](C(=O)Oc2ccc(CCC(=O)O)cc2)CC1 [Cetraxate] | 3.94 |
| O=C(O)CCCc1ccccc1 [4-Phenylbutyric acid] | 3.9 |
| O=c1[nH]c(=O)n([C@H]2C[C@H](O)[C@@H](CO)O2)cc1F [Floxuridine] | 14.3 |
| CCN1CCN(C(=O)N[C@@H](C(=O)N[C@@H]2C(=O)N3[C@@H]2SC(C)(C)[C@@H]3C(=O)O)c2ccccc2)C(=O)C1=O [Piperacillin] | 3.8 |
| C[C@@H]1CN(CCCn2c3ccccc3c3ccccc32)C[C@H](C)N1 [Rimcazole] | 3.1 |
| CCn1cc(C(=O)O)c(=O)c2cc(F)c(N3CCN(C)CC3)cc21 [Pefloxacin] | 2.87 |
| COC(=O)C1=C(C)NC(C)=C(C(=O)OCC(C)C)C1c1ccccc1[N+](=O)[O-] (stereo unspecified) [Nisoldipine] | 4.19 |
| O=C(CCCN1CCC(O)(c2ccc(Cl)cc2)CC1)c1ccc(F)cc1 [Haloperidol] | 2.9 |
| C[C@H]1C[C@@H]2[C@H]([C@@H](O)C[C@@]3(C)[C@H]2CC[C@]3(O)C(=O)CO)[C@@]2(C)C=CC(=O)C=C12 [Methylprednisolone] | 4.2 |
| CCC(C)n1ncn(-c2ccc(N3CCN(c4ccc(OCC5COC(Cn6cncn6)(c6ccc(Cl)cc6Cl)O5)cc4)CC3)cc2)c1=O (stereo unspecified) [Itraconazole] | 11.2 |
| C#C[C@]1(O)CC[C@H]2[C@@H]3CCc4cc(O)ccc4[C@H]3CC[C@@]21C [Ethinyl Estradiol] | 4.38 |
| CC[C@@H](CO)NCCN[C@@H](CC)CO [Ethambutol] | 3.7 |
| CC(=O)[C@]1(O)Cc2c(O)c3c(c(O)c2[C@@H](O[C@H]2C[C@H](N)[C@H](O)[C@H](C)O2)C1)C(=O)c1ccccc1C3=O [Idarubicin] | > 40 |
| COc1c2occc2cc2ccc(=O)oc12 [Methoxsalen] | 4.16 |
| NCc1ccc(S(N)(=O)=O)cc1 [Mafenide] | 4.6 |
| O=C(O[C@@H]1C[C@@H]2C[C@H]3C[C@H](C1)N2CC3=O)c1c[nH]c2ccccc12 [Dolasetron] | 2.93 |
| Cc1ncc([N+](=O)[O-])n1CC(C)O (stereo unspecified) [Secnidazole] | 3.42 |
| Nc1nc(=O)c2nc(CNc3ccc(C(=O)N[C@@H](CCC(=O)O)C(=O)O)cc3)cnc2[nH]1 [Folic acid] | 3.6 |
